The source of these data is patent US12728111B2, “Electrophilic compounds and electrophilic prodrugs for treating aneurysm” (University of Pittsburgh—Of the Commonwealth System of …, priority 2020, dated 2026).

A short description of the series: Serum cholesterol, triglyceride and body weight in AAA model mice. It is filed as in vivo, mouse. The following applies: 5 mg/kg/day, 4 weeks; for serum TG levels: compared to vehicle.

As for `CCCCCCCCC(=CCCCCCCCC(=O)O)[N+](=O)[O-]` [NO2—OA, 10-nitro-octadec-9-enoic acid], the body weight result is “no changes”, the cholesterol entry was “no changes” and the “serum TG levels” value was “significantly decreased”.

For `CCCCCCCCC=CCCCCCCCC(=O)O` [OA, octadec-9-enoic acid, reference compound], the “serum TG levels” value was “significantly lower”.
